Among all 390,000 compounds or so, about 4,000 (1%) were called active. Inconclusive means that the source gave no clear call. Such entries were picked first, then a sample of the others. The call rests on the fitted dose curve; in most records, active means well fitted inhibition curve with a large enough effect; inconclusive means small, poorly fitted or top-dose-only effect, or another doubt; inactive means no such curve, though single readings can be large or run the other way. Where the call is inconclusive, the potency comes from a doubtful curve fit.
target: DNA polymerase iota (Homo sapiens) (UniProt Q9UNA4); assay: qHTS for Inhibitors of Polymerase Iota; settings: Pol iota fluorescent replication assay, 10 min; series mostly up to 115 µM
In short: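 Fluorescent replication assay read twice, at 0 min and 10 min after adding 50 nM (final) substrate. Enzyme (10 nM) and compounds were first incubated 15 min at room temperature; enzyme-free buffer wells were negative controls.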
Potency means the concentration at half of the fitted maximal effect.

By UniProt entry, the sequences of proteins in these tests, tags left out. Where a name states a change or a piece, a line headed by the entry shows the natural chain unless it says otherwise.
UniProt Q9UNA4: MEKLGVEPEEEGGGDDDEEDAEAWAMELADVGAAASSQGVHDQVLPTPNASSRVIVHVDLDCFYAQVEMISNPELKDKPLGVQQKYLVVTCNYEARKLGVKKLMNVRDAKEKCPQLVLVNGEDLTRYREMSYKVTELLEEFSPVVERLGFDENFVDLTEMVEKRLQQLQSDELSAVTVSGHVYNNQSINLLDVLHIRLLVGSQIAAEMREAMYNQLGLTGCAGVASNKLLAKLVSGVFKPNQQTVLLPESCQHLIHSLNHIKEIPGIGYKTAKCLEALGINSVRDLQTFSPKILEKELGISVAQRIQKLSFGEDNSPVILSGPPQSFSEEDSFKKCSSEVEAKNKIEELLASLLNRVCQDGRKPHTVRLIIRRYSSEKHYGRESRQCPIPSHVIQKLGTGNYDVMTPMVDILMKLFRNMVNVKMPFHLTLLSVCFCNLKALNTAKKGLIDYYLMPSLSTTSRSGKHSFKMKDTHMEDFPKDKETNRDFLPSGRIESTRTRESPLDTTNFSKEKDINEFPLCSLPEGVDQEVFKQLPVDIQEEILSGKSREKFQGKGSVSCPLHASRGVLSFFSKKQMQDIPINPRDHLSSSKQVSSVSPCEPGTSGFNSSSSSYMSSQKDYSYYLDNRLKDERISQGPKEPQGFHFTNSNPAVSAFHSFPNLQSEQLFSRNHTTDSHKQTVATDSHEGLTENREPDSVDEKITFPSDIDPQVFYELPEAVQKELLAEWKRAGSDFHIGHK

Potency, inconclusive:
O=C(NNC(=O)c1ccccc1Br)c1ccc2nc[nH]c2c1 35.5 µM [inhibitor, partial curve, poor fit], O=C(N1CCOCC1)N1CCN(c2nc(-c3ccccc3)cs2)CC1 89.1 µM [inhibitor, single point], O=C(NCc1ccc2[nH]c3c(c2c1)CCCC3)c1ccc(S(=O)(=O)N2CCCCC2)cc1 3.55 µM [inhibitor, full curve, poor fit], O=Cc1sc(=O)n(Cc2cccc(C(=O)O)c2)c1Cl 14.1 µM [inhibitor, partial curve, poor fit], CC1(C)CC(CCN(Cc2ccccc2)C(=O)c2ccco2)(c2ccccc2)CCO1 (stereo unspecified) 1.78 µM [inhibitor, partial curve, poor fit], COc1cccc(OC)c1OCCCCn1cnc2ccccc2c1=O 56.2 µM [inhibitor, single point], Cc1nc2nc(SCC(=O)O)nn2c(C)c1Cc1ccccc1Cl 56.2 µM [inhibitor, single point], Cc1sc2ncnc(NCc3cccnc3)c2c1C 89.1 µM [inhibitor, single point], N#CC1=C(N)N(c2ccccc2)C(c2ccccc2)C1(C#N)C#N (stereo unspecified) 15.8 µM [inhibitor, partial curve, poor fit], O=C1c2ccccc2NC2CCCCC12 (stereo unspecified) 89.1 µM [inhibitor, single point], C=CCN(c1ccccc1OC)S(=O)(=O)c1cccc(C(=O)OC2CCOC2=O)c1 (stereo unspecified) 50.1 µM [inhibitor, partial curve, poor fit], Cc1cccc(-c2noc(CN(C(=O)c3c(-c4ccccc4Cl)noc3C)C(C)C)n2)c1 28.2 µM [inhibitor, single point], Cc1nc2nc(C)n(-c3ccccc3)c2s1 1.41 µM [inhibitor, full curve, poor fit], N#Cc1cc2c(=O)n3ccccc3nc2n(Cc2ccco2)c1=NC(=O)c1ccco1 1.78 µM [inhibitor, full curve, poor fit], Cc1ccc2cccc(NC(=O)c3ccc(-c4ccc(Cl)cc4Cl)o3)c2n1 10 µM [inhibitor, partial curve, poor fit], C/C(=N\N=C(/N)SC1CC(=O)N(c2ccc(Cl)c(Cl)c2)C1=O)c1cccs1 (stereo unspecified) 39.8 µM [inhibitor, single point], COc1ccc(OC)c(CNC(=O)c2cc(=O)[nH]c3ccc(S(=O)(=O)N4CCCCC4C)cc23)c1 (stereo unspecified) 56.2 µM [inhibitor, partial curve, poor fit], O=C(O)c1cccc(NS(=O)(=O)c2ccc3nnn(O)c3c2)c1 35.5 µM [inhibitor, partial curve, poor fit], O=S(=O)(Nc1cccc(-c2cn3cccnc3n2)c1)c1ccc(-c2ccccc2)cc1 28.2 µM [inhibitor, partial curve, poor fit], COc1ccc(-n2c(COc3cccc4ccccc34)nnc2SCC#N)cc1 31.6 µM [inhibitor, single point], COc1cc(OC)cc(C(=O)NCC(C)NC(=O)c2cc(OC)cc(OC)c2)c1 (stereo unspecified) 35.5 µM [inhibitor, single point], O=C(Nc1nnc(C2=COCCO2)o1)c1cccc(F)c1 31.6 µM [inhibitor, partial curve, poor fit], CC(C)CN1CCC(=O)N(CCSc2ccccc2)CC1 89.1 µM [inhibitor, single point], CCC(=O)Nc1sc(C(=O)N2CCCCC2)c(C)c1C#N 100 µM [inhibitor, single point], CCCCSc1nnc(-c2cc3c(C(F)(F)F)nn(C)c3s2)n1C 0.794 µM [inhibitor, partial curve, poor fit], COc1ccc(C2=NOC(C(=O)Nc3c(C)n(C)n(-c4ccccc4)c3=O)C2)cc1OC (stereo unspecified) 1.58 µM [inhibitor, full curve, poor fit], O=C(CSc1ccsc1[N+](=O)[O-])NCc1ccccc1 14.1 µM [inhibitor, partial curve, poor fit], CCN(C(=O)Cc1cccs1)c1nnc(-c2cccnc2)s1 35.5 µM [inhibitor, full curve, poor fit], O=c1c2[nH]cnc2n(-c2ccc(F)cc2)c(=O)n1Cc1ccccc1 56.2 µM [inhibitor, partial curve, poor fit], COC/C=C/C1=CC2=CC(=O)C(C)(OC(=O)c3cnc4ccccc4n3)C(=O)C2=CN1Cc1ccccc1 (stereo unspecified) 28.2 µM [inhibitor, partial curve, poor fit], Cc1cccc(C(=O)OC(C)CN2CCCC2)c1 (stereo unspecified) 50.1 µM [inhibitor, full curve, poor fit], CCOc1ccc(S(=O)(=O)N2CCN(C(=O)c3ccc(Cl)c(S(=O)(=O)N4CCOCC4)c3)CC2)cc1 56.2 µM [inhibitor, single point], N#Cc1c(-c2ccco2)cc(-c2cccnc2)nc1N 20 µM [inhibitor, full curve, poor fit], C#CCNC(=O)C1=C[C@H](c2ccc(C#C)cc2)C[C@H](OCc2ccc(CO)cc2)O1 50.1 µM [inhibitor, partial curve, poor fit], O=C(C1=C[C@@H](c2csc3ccccc23)C[C@@H](OCc2ccc(CO)cc2)O1)N1CCN(Cc2ccccc2)CC1 3.16 µM [inhibitor, partial curve, poor fit], COc1cccc([C@@H]2Oc3ccc(OC)cc3C(=O)[C@H]2OC(=O)Nc2cc(OC)c(OC)c(OC)c2)c1 10 µM [inhibitor, partial curve, poor fit], CCN(C[C@H]1N[C@@](CC)(C(=O)OC)[C@H]2C(=O)N(C)C(=O)[C@@H]12)S(=O)(=O)c1ccc(C)cc1 89.1 µM [inhibitor, single point], O=C(C1CCN(c2nnc(-n3cccc3)s2)CC1)N1CCN(Cc2ccc3c(c2)OCO3)CC1 10 µM [inhibitor, full curve, poor fit], COCCCNC(=O)C[C@H]1C[C@H](C(=O)N2CCCCC2)[C@@]2(CCc3ccccc3)c3[nH]c4cc(-c5ccco5)ccc4c3CCN2C1=O 10 µM [inhibitor, partial curve, poor fit], CCN1CCN(Cc2ccc(NC(=O)c3cc(NC(=O)c4cncc(-c5cccs5)c4)cc(OC)c3)cc2C(F)(F)F)CC1 15.8 µM [inhibitor, partial curve, poor fit], CCC(C)(C(=O)Nc1c(C)cccc1C)N(C)C(=O)c1ccc2ccccc2n1 (stereo unspecified) 89.1 µM [inhibitor, partial curve, poor fit], CCn1c(CNc2nc(-c3ccccc3)cs2)nnc1SCC(=O)NCc1ccco1 31.6 µM [inhibitor, full curve], COc1ccc(N2CC(C(=O)N[C@H](C(=O)NC3CCCCC3)C(C)C)CC2=O)cc1 (stereo partly specified) 89.1 µM [inhibitor, single point], COc1ccc(-c2cc(=O)oc3c(O)c(O)ccc23)cc1 7.94 µM [inhibitor, full curve, poor fit], CN(C)S(=O)(=O)c1cccc(C(=O)C2=C3SC=C(c4ccccc4)N3CC2)c1 39.8 µM [inhibitor, single point], CC(OC(=O)c1cc2sccc2n1C)C(=O)NCCc1ccccc1 (stereo unspecified) 3.98 µM [inhibitor, single point], CC(=O)Nc1ccc2nsnc2c1 100 µM [inhibitor, single point]

Potency, inactive:
O=C(C[n+]1ccccc1Br)c1ccc(F)cc1, O=C(CNC(=O)c1cccc(Br)c1)N/N=C/c1cc(Br)cc(Br)c1O, CCN(N=O)c1ccc(/C=C/c2ccnc3ccccc23)cc1, C=C[C@@H]1c2ccccc2N(S(=O)(=O)c2ccc(C)cc2)[C@H](c2ccc(C(=O)OC)cc2)C1(C#N)C#N, COc1ccc(/C=N\NC(=O)C2C(=O)NCC2c2ccccc2)cc1O (stereo unspecified), COc1ccccc1/C=C(\C#N)c1nc(-c2cc3ccccc3oc2=O)cs1, COc1ccc(-c2ccnc3c2c(=O)n(C)c(=O)n3C)cc1OC, CC1=C(C(=O)O)N2C(=O)C(NC(=O)c3ccc(F)cc3)C2SC1 (stereo unspecified), C[C@@H]1CN([C@H](C)CO)C(=O)c2cc(NC(=O)C3CCCCC3)ccc2O[C@@H]1CN(C)Cc1ccc(C(F)(F)F)cc1, CCc1nn(CC(=O)N2CCCCCC2)c(=O)c2cc3ccccc3n12, COc1ccccc1CN1CCCC(CNC(=O)c2cccc3ccccc23)C1 (stereo unspecified)

Potency, active:
N#Cc1c(SCC(=O)Nc2nc3ccccc3s2)sc2c(O)cc(=O)[nH]c12 6.31 µM, NC(=O)CSc1nc2scc(-c3ccco3)c2c(=O)n1-c1ccccc1 11.2 µM, O=C(Nc1cccnc1Cl)c1ccc(=O)oc1 22.4 µM
